Experimental data reported in article PMC10803776.
No constants are given. Whether binding was seen depends on the method and setting. Binding seen in cells or lysates may run through a third protein. Some results given as binding are weak or reduced against the parent protein; the word gives no strength.

The chains behind the UniProt entries cited, without tags or fusion partners.
UniProt P9WMT5: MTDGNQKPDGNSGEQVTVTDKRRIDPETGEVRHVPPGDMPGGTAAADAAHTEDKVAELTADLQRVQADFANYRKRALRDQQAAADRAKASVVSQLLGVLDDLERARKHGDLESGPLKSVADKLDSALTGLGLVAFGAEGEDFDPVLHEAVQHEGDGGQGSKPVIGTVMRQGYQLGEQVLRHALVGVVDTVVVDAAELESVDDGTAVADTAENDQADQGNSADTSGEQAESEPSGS

What was measured:
Assay in all cases: co-IP; ALFA-tagged bait captured on Nanobody ALFA magnetic beads from lysates of M. smegmatis CRISPRi depletion strains (ATc 50 ng/mL, 18 h); PBS, 10% glycerol, 4 mM EDTA, 4 °C, 2 h; eluates blotted with DnaK and GrpE antisera
[1] = biological target: Mtb ALFA-DnaK Mut-3 expressed in M. smegmatis (Mycobacterium tuberculosis) (UniProt P9WMJ9)
[2] = biological target: Mtb ALFA-DnaK Mut-1 expressed in M. smegmatis (Mycobacterium tuberculosis) (UniProt P9WMJ9)
[3] = biological target: Mtb ALFA-DnaK Mut-4 expressed in M. smegmatis (Mycobacterium tuberculosis) (UniProt P9WMJ9)

Measured: binding

GrpE in lysates of M. smegmatis carrying the Mtb dnaK operon (untagged) (from UniProt P9WMT5 1-235)
binds: all assays above
